# This is one part of the list. Shown are side measurements of this screen, not its main read-out; they come without a call. Compounds called inactive in the main read-out are mostly missing here. Potencies come from curve fits of mixed quality, noted in brackets.
# Assay: qHTS Assay for Lipid Storage Modulators in Drosophila S3 Cells;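 on cell number change: cells counted by Cell Tracker Red CMTPX staining in the red channel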
# Details: BODIPY lipid droplet fluorescence, 18-24 h; for cell number change: measured here: cell count max response, cells fed with added oleic acid
# Summary of the method: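 Drosophila S3 cells loaded with oleic acid (400 uM, as added) and compounds at several concentrations; lipid droplets imaged by 488-nm laser-scanning cytometry, 500–530 nm intensity and object ratio to cell channel. Percent activity normalized to 20 uM Triacsin C.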
# [1] = measured here: cell number channel AC50, cells fed with added oleic acid
# [2] = measured here: lipid fluorescence (Fed channel) AC50, cells fed with added oleic acid
smiles,measurement,setting,value
Cc1cc(C)n(S(=O)(=O)c2ccc(C)c(C)c2C)n1,AC50,[1],"0.184 µM [rising, full curve, poor fit]"
COc1ccc(-c2cc(C(=O)N3CCCc4ccccc43)no2)cc1OC,cell number change,,-7.29%
same,AC50,[2],"9.2 µM [falling, partial curve]"
Cc1ccc(S(=O)(=O)c2nnn3c2nc(N2CCOCC2)c2ccccc23)cc1C,cell number change,,10.8%
CCN(CC(=O)Nc1cccc(C(C)=O)c1)S(=O)(=O)c1ccc(OC)cc1,cell number change,,9.31%
same,AC50,[2],"3.26 µM [rising, single point]"
Cc1[nH]c(=O)[nH]c(=O)c1Sc1ccccc1[N+](=O)[O-],cell number change,,-7.14%
Cc1ccccc1NC(=O)CN1CCN(Cc2ccccc2)CC1,cell number change,,-14.6%
same,AC50,[1],"0.116 µM [falling, full curve, poor fit]"
COc1ccc(/C=C/C(=O)Nc2ccccc2)cc1OC,cell number change,,44.8%
same,AC50,[1],"4.61 µM [rising, full curve]"
same,AC50,[2],"1.84 µM [rising, full curve]"
CSCCC1Nc2ccc(S(=O)(=O)N3CCOCC3)cc2NC1=O (stereo not drawn),cell number change,,21.8%
N#Cc1c(/N=C/c2cccnc2)sc2c1CCCC2,cell number change,,20.9%
same,AC50,[2],"13 µM [rising, partial curve, poor fit]"
CN1CCC(=NNC(=O)C(=O)NC2CCCCC2)CC1,cell number change,,31.8%
same,AC50,[1],"0.92 µM [rising, full curve, poor fit]"
same,AC50,[2],"29.1 µM [falling, single point]"
Cc1cc(C)c(S(=O)(=O)N(C)CC(N)=O)c(C)c1,AC50,[1],"6.51 µM [falling, single point]"
same,AC50,[2],"6.51 µM [falling, single point]"
CCOC(=O)CSc1nc2ccc(N3CCOCC3)cc2c(=O)n1Cc1ccccc1,cell number change,,35.7%
same,AC50,[1],"0.366 µM [rising, full curve]"
same,AC50,[2],"0.517 µM [rising, partial curve]"
Cc1onc(-c2ccccc2)c1C(=O)NC(=S)Nc1sc2c(c1C#N)CCC(C)C2 (stereo not drawn),cell number change,,-54.8%
same,AC50,[1],"5.8 µM [falling, partial curve, poor fit]"
same,AC50,[2],"0.651 µM [falling, full curve, poor fit]"
Cc1ccc(NS(=O)(=O)c2cc(C(=O)NCc3ccncc3)ccc2C)cc1,cell number change,,4.91%
c1ccc(CCCN2CCN(c3ccccc3)CC2)cc1,cell number change,,23.3%
COc1cc(C(=O)NCC2CCCO2)ccc1OCc1ccc(Cl)cc1 (stereo not drawn),cell number change,,-4.71%
same,AC50,[2],"3.66 µM [falling, single point]"
Cc1ccc2oc(-c3cccc(NC(=O)C4CCCO4)c3)nc2c1 (stereo not drawn),cell number change,,113%
same,AC50,[1],"2.06 µM [rising, full curve]"
CC(=O)c1ccc(NS(=O)(=O)Cc2ccc(Cl)cc2)cc1,cell number change,,-6.97%
same,AC50,[2],"5.8 µM [falling, single point]"
CC(=O)c1cccc(NC(=O)CN(C)S(=O)(=O)c2ccccc2)c1,cell number change,,-18.8%
same,AC50,[2],"18.4 µM [falling, single point]"
CCOc1ccc(S(=O)(=O)n2ccc(C)n2)cc1,cell number change,,16.1%
same,AC50,[2],"29.1 µM [rising, single point]"
CC(=O)Nc1scc(C)c1-c1nc2ccccc2s1,cell number change,,-33.3%
same,AC50,[1],"32.6 µM [falling, single point]"
same,AC50,[2],"29.1 µM [falling, single point]"
COc1ccc(NC(=O)COC(=O)CN2C(=O)C3CCCCC3C2=O)cc1OC (stereo not drawn),cell number change,,-12.2%
Oc1ccc(-c2csc(Nc3ccccn3)n2)cc1,cell number change,,-26.7%
same,AC50,[2],"3.26 µM [falling, single point]"
CCCc1nc2c(=O)n(C)c(=O)[nH]c2n1CCC,cell number change,,-23.4%
same,AC50,[1],"1.46 µM [falling, full curve, poor fit]"
same,AC50,[2],"1.64 µM [falling, partial curve]"
COC(=O)[C@H](CCSC)NC(=O)Nc1ccc(OC)cc1,cell number change,,-1.68%
same,AC50,[1],"0.651 µM [falling, single point]"
same,AC50,[2],"0.58 µM [falling, single point]"
CN1/C(=C\C(=S)Nc2ccccc2)C(C)(C)c2ccccc21,cell number change,,-4.1%
same,AC50,[2],"5.8 µM [rising, single point]"
Clc1ccc(CNCC2CCCO2)cc1 (stereo not drawn),AC50,[2],"9.2 µM [rising, single point]"
COc1ccc(C(=O)N/C(=C\c2ccc(OC)c(OC)c2)C(=O)N2CCCCC2)cc1,cell number change,,3.48%
same,AC50,[2],"5.8 µM [rising, full curve, poor fit]"
CSc1nc(C2CC2)cc(-c2cccs2)c1C#N,cell number change,,-2.79%
same,AC50,[1],"0.00461 µM [rising, full curve, poor fit]"
CCOC(=O)C1=C(c2ccccc2)Nc2ncnn2C1c1ccc(O)cc1 (stereo not drawn),cell number change,,20.6%
same,AC50,[1],"0.651 µM [rising, full curve, poor fit]"
same,AC50,[2],"0.82 µM [rising, full curve, poor fit]"
CCOC(=O)C(=Cc1cn(C)c2ccc(S(=O)(=O)N(C)C)cc12)C(=O)OCC,cell number change,,-18.6%
same,AC50,[1],"3.66 µM [falling, single point]"
same,AC50,[2],"29.1 µM [falling, single point]"
CCSc1nc2ccccc2[nH]1,cell number change,,6.43%
same,AC50,[2],"2.31 µM [falling, partial curve]"
CCn1nc(C(=O)N2CCc3ccccc32)c2ccccc2c1=O,cell number change,,11.8%
same,AC50,[2],"0.184 µM [falling, full curve, poor fit]"
CC1(c2ccc3c(c2)OCCCO3)NC(=O)N(CC(=O)Nc2cccc(C#N)c2)C1=O (stereo not drawn),cell number change,,-11.6%
same,AC50,[2],"1.84 µM [rising, partial curve, poor fit]"
COc1cc2nc(N3CCN(C(=O)OCc4ccccc4)[C@H](C(=O)NC(C)(C)C)C3)nc(N)c2cc1OC,cell number change,,19.7%
same,AC50,[2],"2.31 µM [rising, partial curve]"
COc1cc(NC(=O)CSc2nnc(-c3cc(C)on3)o2)cc(OC)c1,cell number change,,34.6%
same,AC50,[1],"0.00731 µM [rising, full curve, poor fit]"
COc1ccc(/C=N/NC(=O)CCc2n[nH]c(=O)[nH]c2=O)cc1OC,cell number change,,3.32%
same,AC50,[2],"0.0651 µM [falling, full curve, poor fit]"
CCn1c(SCc2ccc(Cl)cc2Cl)nc2nc3c(cc2c1=O)CCCC3,cell number change,,3.72%
same,AC50,[2],"0.82 µM [rising, full curve, poor fit]"
Cc1cccc(CS(=O)(=O)Cc2ccc(C(=O)NCC3CCCO3)o2)c1 (stereo not drawn),cell number change,,128%
same,AC50,[1],"20.6 µM [rising, single point]"
CCOC(=O)COc1c(/C=N\OC)cc(Cl)cc1OC,cell number change,,-80.4%
same,AC50,[1],"29.1 µM [falling, single point]"
CC(C)(C)N1CC(c2nc3ccccc3n2Cc2ccc(Cl)cc2)CC1=O (stereo not drawn),cell number change,,23.7%
same,AC50,[1],"0.326 µM [rising, full curve, poor fit]"
Cc1ccc(C(c2c(C)nn(-c3ccccc3)c2N)c2c(C)nn(-c3ccccc3)c2N)cc1,cell number change,,19.9%
O=C(NCCn1cc(SCC(=O)N2CCOCC2)c2ccccc21)c1c(F)cccc1F,cell number change,,17.9%
O=c1nc(SCc2c(F)cccc2Cl)nc(-c2ccccc2)[nH]1,cell number change,,6.25%
same,AC50,[1],"0.82 µM [rising, single point]"
O=C(N/N=C1\C/C(=N\NC(=O)c2ccncc2)c2ccccc21)c1ccncc1,cell number change,,29.9%
same,AC50,[2],"9.2 µM [rising, partial curve, poor fit]"
Cc1c(C(=O)O)cccc1-n1c(C)cc(/C=N/NC(=O)c2cc3ccccc3o2)c1C,cell number change,,14.9%
same,AC50,[1],"0.731 µM [rising, partial curve, poor fit]"
CC(CC(=O)NC1CCCC1)c1ccccc1 (stereo not drawn),cell number change,,9.6%
same,AC50,[1],"0.103 µM [falling, full curve]"
Cn1c(O)c(C2=c3ccccc3=NC2=O)[nH]c1=S,cell number change,,110%
same,AC50,[1],"16.4 µM [rising, partial curve]"
same,AC50,[2],"29.1 µM [rising, single point]"
O=[N+]([O-])c1ccc(S(=O)(=O)Nc2ccc(-c3ccc(N4CCCC4)nn3)cc2)cc1,cell number change,,42%
same,AC50,[1],"6.51 µM [rising, full curve]"
same,AC50,[2],"6.51 µM [rising, single point]"
COC(=O)c1ccc(-c2noc(CN(Cc3ccccn3)CC3CCCO3)n2)cc1 (stereo not drawn),cell number change,,-13%
COc1ccc([C@H]2CC(=O)C=C(c3cc(C=O)ccc3OC)C2)cc1,cell number change,,-13.3%
CC(CCc1ccccc1)NC(=O)C(=O)NCc1ccccc1 (stereo not drawn),cell number change,,33.3%
same,AC50,[1],"29.1 µM [rising, single point]"
same,AC50,[2],"2.31 µM [rising, single point]"
COc1ccc(N2CCN(C(CNS(=O)(=O)c3cccs3)c3cccnc3)CC2)cc1 (stereo not drawn),cell number change,,56.5%
same,AC50,[1],"2.06 µM [rising, partial curve, poor fit]"
same,AC50,[2],"0.206 µM [rising, full curve]"
COc1ccc(Cn2nnnc2C(c2ccc(C)cc2)N2CCN(C3CCCC3)CC2)cc1 (stereo not drawn),cell number change,,-1.52%
same,AC50,[2],"0.0184 µM [falling, full curve]"
CC(C)CC(=O)N1CCC(O)(CS(=O)(=O)Cc2ccccc2Cl)CC1,AC50,[1],"4.11 µM [falling, single point]"
COCCNC(C)C(=O)C12CC3CC(CC(C3)C1)C2 (stereo not drawn),cell number change,,-2.71%
Nc1nonc1-n1nnc(C(=O)N/N=C/c2ccc(OCc3ccccc3)cc2)c1COc1ccc(F)cc1,cell number change,,5.22%
same,AC50,[2],"0.731 µM [rising, partial curve]"
COc1cc(NC(=O)CSc2nc3[nH]ncc3c(=O)n2-c2ccccc2C)cc(OC)c1OC,cell number change,,32%
same,AC50,[1],"4.61 µM [rising, partial curve]"
same,AC50,[2],"4.61 µM [rising, partial curve]"
Cc1ccc(NC(=O)C2C3C=CC4(O3)C2C(=O)N(CCN2CCOCC2)C4C(=O)NC2CCCCC2)cc1C (stereo not drawn),cell number change,,39.5%
same,AC50,[2],"29.1 µM [rising, partial curve]"

# Some of the entries so far, with bars between the fields:
smiles | measurement | setting | value
Cc1[nH]c(=O)[nH]c(=O)c1Sc1ccccc1[N+](=O)[O-] | cell number change |  | -7.14%
Cc1ccccc1NC(=O)CN1CCN(Cc2ccccc2)CC1 | cell number change |  | -14.6%
N#Cc1c(/N=C/c2cccnc2)sc2c1CCCC2 | cell number change |  | 20.9%
CCOC(=O)CSc1nc2ccc(N3CCOCC3)cc2c(=O)n1Cc1ccccc1 | AC50 | [1] | 0.366 µM [rising, full curve]
Cc1ccc2oc(-c3cccc(NC(=O)C4CCCO4)c3)nc2c1 (stereo not drawn) | AC50 | [1] | 2.06 µM [rising, full curve]
CC(=O)c1ccc(NS(=O)(=O)Cc2ccc(Cl)cc2)cc1 | cell number change |  | -6.97%
CCOc1ccc(S(=O)(=O)n2ccc(C)n2)cc1 | cell number change |  | 16.1%
CC(=O)Nc1scc(C)c1-c1nc2ccccc2s1 | cell number change |  | -33.3%
same | AC50 | [2] | 29.1 µM [falling, single point]
Oc1ccc(-c2csc(Nc3ccccn3)n2)cc1 | AC50 | [2] | 3.26 µM [falling, single point]
CCCc1nc2c(=O)n(C)c(=O)[nH]c2n1CCC | AC50 | [1] | 1.46 µM [falling, full curve, poor fit]
same | AC50 | [2] | 1.64 µM [falling, partial curve]
COc1ccc(C(=O)N/C(=C\c2ccc(OC)c(OC)c2)C(=O)N2CCCCC2)cc1 | AC50 | [2] | 5.8 µM [rising, full curve, poor fit]
CCOC(=O)C1=C(c2ccccc2)Nc2ncnn2C1c1ccc(O)cc1 (stereo not drawn) | AC50 | [2] | 0.82 µM [rising, full curve, poor fit]
CCOC(=O)C(=Cc1cn(C)c2ccc(S(=O)(=O)N(C)C)cc12)C(=O)OCC | cell number change |  | -18.6%
CCSc1nc2ccccc2[nH]1 | cell number change |  | 6.43%
COc1cc(NC(=O)CSc2nnc(-c3cc(C)on3)o2)cc(OC)c1 | cell number change |  | 34.6%
COc1ccc(/C=N/NC(=O)CCc2n[nH]c(=O)[nH]c2=O)cc1OC | AC50 | [2] | 0.0651 µM [falling, full curve, poor fit]
CC(C)(C)N1CC(c2nc3ccccc3n2Cc2ccc(Cl)cc2)CC1=O (stereo not drawn) | cell number change |  | 23.7%
Cc1ccc(C(c2c(C)nn(-c3ccccc3)c2N)c2c(C)nn(-c3ccccc3)c2N)cc1 | cell number change |  | 19.9%
O=c1nc(SCc2c(F)cccc2Cl)nc(-c2ccccc2)[nH]1 | cell number change |  | 6.25%
O=C(N/N=C1\C/C(=N\NC(=O)c2ccncc2)c2ccccc21)c1ccncc1 | cell number change |  | 29.9%
Cn1c(O)c(C2=c3ccccc3=NC2=O)[nH]c1=S | AC50 | [1] | 16.4 µM [rising, partial curve]
COc1ccc(N2CCN(C(CNS(=O)(=O)c3cccs3)c3cccnc3)CC2)cc1 (stereo not drawn) | cell number change |  | 56.5%
same | AC50 | [2] | 0.206 µM [rising, full curve]
COc1cc(NC(=O)CSc2nc3[nH]ncc3c(=O)n2-c2ccccc2C)cc(OC)c1OC | AC50 | [2] | 4.61 µM [rising, partial curve]
Cc1ccc(NC(=O)C2C3C=CC4(O3)C2C(=O)N(CCN2CCOCC2)C4C(=O)NC2CCCCC2)cc1C (stereo not drawn) | cell number change |  | 39.5%
